Data as given in PubChem BioAssay AID602196 (INSERM, 2012).
In all, the deposit lists about 23,000 reagents; below is an unselected part. Of all reagents, 455 (2%) got an active call. 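Active includes both protection and sensitisation; some change values fall well beyond the stated -50 to +50 range.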 Not all columns of the deposit are shown. The record does not give: the amount of reagent.

- Purpose: 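Genes whose knock-down alters cisplatin killing of lung cancer cells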
- Cells: human A549 lung cancer cells
- Reagents: siRNA pair against human genes
- Timing: 48 h transfection before cisplatin; time from cisplatin to read-out not stated
- Challenge: cisplatin at a dose killing half of control-siRNA cells; exact dose and duration not given
- Read-out: 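Shift in cisplatin death relative to control siRNA, from -50 (all cells die) to +50 (no cells die); siRNAs harmful on their own scored 0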
- Reading the numbers: two-siRNA summed score (-2 to +2): higher = both siRNAs protect from cisplatin killing; -2 means both sensitise; mean protection from cisplatin (shift in death) and protection from cisplatin (shift in death), siRNA C: higher = protection from cisplatin killing
- Call rule: 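siRNAs harmful alone (LDH or WST-1) get 0; others get +1 for less and -1 for more cisplatin killing; genes are active when the two siRNAs give the same sign, summing to ±2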
- Meaning of the calls: active = both siRNAs shift cisplatin killing the same way; inactive = no consistent shift, or siRNA harmful alone

| gene | two-siRNA summed score (-2 to +2) | mean protection from cisplatin (shift in death) (%) | protection from cisplatin (shift in death), siRNA C (%) | activity call |
| --- | --- | --- | --- | --- |
| LOC441614 | 0 | 3.4 | 14.8 | inactive |
| MIEF1 | 0 | 6.6 | 8 | inactive |
| LOC441579 | 1 | 15.5 | 15.4 | inactive |
| PLXNB3 | -1 | -24.4 | -24.1 | inactive |
| DRC1 | 0 | -4.2 | -0.9 | inactive |
| GMEB2 | 0 | -7 | 14 | inactive |
| CAPNS2 | 0 | 5.4 | 10.1 | inactive |
| DYRK3 | 0 | -1.6 | -6.4 | inactive |
| RPL10P17 | 0 | 10.8 | 10.5 | inactive |
| ASB9 | 0 | 6.6 | 5.4 | inactive |
| KCTD2 | 0 | 2.1 | -10.8 | inactive |
| SUCLG2 | 0 | 1.7 | 5 | inactive |
| SLC26A11 | 0 | 7.5 | 7.8 | inactive |
| CLTC | 1 | 6.6 | 11.3 | inactive |
| IDH2 | 1 | 7.4 | -4.6 | inactive |
| LOC440152 | 0 | 9.7 | 5.5 | inactive |
| ATP2C1 | 0 | 12.5 | 6.8 | inactive |
| RPL39L | 1 | 9.8 | 13.7 | inactive |
| RCC1 | 1 | 0.9 | -7 | inactive |
| C8orf48 | 0 | 4.3 | 4 | inactive |
| LOC441512 | 0 | 12.1 | 5.9 | inactive |
| LOC442752 | 0 | -4.7 | -8.6 | inactive |
| LOC401089 | 0 | 4.5 | 7.9 | inactive |

2 entries already listed, sorted by “two-siRNA summed score (-2 to +2)”, highest first:
| gene | two-siRNA summed score (-2 to +2) | mean protection from cisplatin (shift in death) (%) | protection from cisplatin (shift in death), siRNA C (%) | activity call |
| --- | --- | --- | --- | --- |
| LOC441579 | 1 | 15.5 | 15.4 | inactive |
| PLXNB3 | -1 | -24.4 | -24.1 | inactive |
